In assay [1] the target is FLAG-tagged API5 4Mut (D145A/E184A/D185A/E190A) (human) (UniProt Q9BZZ5). Nature of the assay: co-IP; API5 knockout (gAPI5) HeLa cells reconstituted with API5 WT or 4Mut; RNase A used during immunoprecipitation.
Assay [2] deals with FLAG-tagged API5 WT (human) (UniProt Q9BZZ5). The assay is described as above.
Assay [3] has as its target GST-API5, wild type (human) (UniProt Q9BZZ5). The experiment in a line: pull-down; GST pulldown with purified recombinant GST-API5 and His-FGF2; Coomassie blue staining; both purified.
The target in assay [4] is FLAG-tagged API5 4Mut (D145A/E184A/D185A/E190A) (human) (UniProt Q9BZZ5). The experiment in a line: co-IP; FLAG-API5 (WT or 4Mut) and HA-tagged LMW FGF2 WT transiently co-expressed in API5 knockout (gAPI5) HeLa cells; anti-Flag antibody.
For assay [5], the target named is FLAG-tagged API5 WT (human) (UniProt Q9BZZ5). The assay is described as above.
In assay [6] the target is T1, API5 in cells (immunoprecipitation of Supplementary Figure S9) (human) (UniProt Q9BZZ5).
T1 sequence: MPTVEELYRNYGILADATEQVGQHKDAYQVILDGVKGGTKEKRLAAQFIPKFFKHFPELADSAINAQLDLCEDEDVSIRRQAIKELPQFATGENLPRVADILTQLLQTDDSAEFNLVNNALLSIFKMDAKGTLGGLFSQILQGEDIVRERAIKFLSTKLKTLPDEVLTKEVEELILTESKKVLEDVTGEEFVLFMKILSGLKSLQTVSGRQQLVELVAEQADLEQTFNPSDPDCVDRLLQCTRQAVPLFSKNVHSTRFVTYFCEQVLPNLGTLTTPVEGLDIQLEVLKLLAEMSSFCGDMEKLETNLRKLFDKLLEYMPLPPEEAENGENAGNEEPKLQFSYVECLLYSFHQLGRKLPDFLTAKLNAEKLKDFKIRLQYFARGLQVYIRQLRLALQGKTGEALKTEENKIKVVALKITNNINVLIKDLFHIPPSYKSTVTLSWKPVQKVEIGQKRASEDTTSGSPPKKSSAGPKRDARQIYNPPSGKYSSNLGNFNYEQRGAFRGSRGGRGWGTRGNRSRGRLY
Nature of the assay: co-IP; immunoprecipitation from cells with lentivirus-mediated expression of the API5-segment 2 peptide (Supplementary Figure S9).

The chains behind the UniProt entries cited, without tags or fusion partners. Where a name states a change or a piece, a line headed by the entry shows the natural chain unless it says otherwise. A line that says so, or that is headed by a name, gives the form on record, which may keep a tag or linker. Residues count along the entry.
UniProt P06730: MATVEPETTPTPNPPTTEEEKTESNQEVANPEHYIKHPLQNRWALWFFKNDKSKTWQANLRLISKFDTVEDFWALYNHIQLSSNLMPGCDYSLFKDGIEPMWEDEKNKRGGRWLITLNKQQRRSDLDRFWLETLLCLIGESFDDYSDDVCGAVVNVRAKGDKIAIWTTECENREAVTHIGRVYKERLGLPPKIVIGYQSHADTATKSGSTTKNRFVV
UniProt Q13838: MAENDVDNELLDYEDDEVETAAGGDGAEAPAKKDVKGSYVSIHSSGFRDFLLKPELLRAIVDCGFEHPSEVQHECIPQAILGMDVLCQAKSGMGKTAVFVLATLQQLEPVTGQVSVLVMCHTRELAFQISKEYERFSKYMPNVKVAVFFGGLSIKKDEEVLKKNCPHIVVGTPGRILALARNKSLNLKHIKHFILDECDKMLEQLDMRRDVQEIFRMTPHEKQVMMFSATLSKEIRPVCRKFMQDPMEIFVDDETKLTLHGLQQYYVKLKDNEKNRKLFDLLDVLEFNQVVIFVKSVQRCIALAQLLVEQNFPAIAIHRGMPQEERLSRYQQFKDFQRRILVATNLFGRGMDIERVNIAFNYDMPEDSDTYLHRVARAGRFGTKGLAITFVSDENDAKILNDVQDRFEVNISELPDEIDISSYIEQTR
HA-tagged LMW FGF2 WT (P09038, residues 135-288): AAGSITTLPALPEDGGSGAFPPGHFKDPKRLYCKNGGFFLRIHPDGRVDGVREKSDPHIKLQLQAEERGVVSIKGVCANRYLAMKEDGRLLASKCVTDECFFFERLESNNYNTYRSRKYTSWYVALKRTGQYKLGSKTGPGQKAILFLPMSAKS
His-FGF2, LMW FGF2 (residues 135-288, C211S/C229S) (P09038, form named): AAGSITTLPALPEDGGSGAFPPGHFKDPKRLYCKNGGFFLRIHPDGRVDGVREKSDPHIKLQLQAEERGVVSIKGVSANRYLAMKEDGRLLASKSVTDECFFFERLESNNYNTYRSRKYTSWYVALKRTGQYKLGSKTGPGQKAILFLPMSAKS

These are yes or no findings as the source states them, for the method shown. Binding can be weak; no strength is given. For some assays here: In cells and extracts the contact can be indirect.

As for eIF4E (from UniProt P06730 1-217), the results for the binding entry in assay [1] and in assay [2] were “no binding” and “binds”, respectively.
“UAP56 (DDX39B), endogenous (from UniProt Q13838 1-428)”: the binding entry in assay [1] and in assay [2] was “binds” throughout.
In the case of “His-FGF2, LMW FGF2 (residues 135-288, C211S/C229S) (from UniProt P09038 135-288)”, the binding entry in assay [3] is “binds”.
Turning to “HA-tagged LMW FGF2 WT (from UniProt P09038 135-288)”, the binding result in assay [4] and in assay [5] was “binds” in each case.
Consider “FGF2 in cells (immunoprecipitation of Supplementary Figure S9) (from UniProt P09038)”, for which the binding entry in assay [6] is “binds”.

Source of the values: article PMC7293033.
